Data as given in patent US20250034239A1.
Results are given in words; binding and its absence hold for the method and conditions named. Some binding calls cover weakened binding; strength is not graded here. Where a sequence is shown, tags or fusion partners need not be part of it. Blank lines part the entries; values can stand above or below the binder they belong to.

Protein sequences, listed by entry. Tags and fused reporters are not part of them. Residues count along the entry.
UniProt P11680, residues 23-464: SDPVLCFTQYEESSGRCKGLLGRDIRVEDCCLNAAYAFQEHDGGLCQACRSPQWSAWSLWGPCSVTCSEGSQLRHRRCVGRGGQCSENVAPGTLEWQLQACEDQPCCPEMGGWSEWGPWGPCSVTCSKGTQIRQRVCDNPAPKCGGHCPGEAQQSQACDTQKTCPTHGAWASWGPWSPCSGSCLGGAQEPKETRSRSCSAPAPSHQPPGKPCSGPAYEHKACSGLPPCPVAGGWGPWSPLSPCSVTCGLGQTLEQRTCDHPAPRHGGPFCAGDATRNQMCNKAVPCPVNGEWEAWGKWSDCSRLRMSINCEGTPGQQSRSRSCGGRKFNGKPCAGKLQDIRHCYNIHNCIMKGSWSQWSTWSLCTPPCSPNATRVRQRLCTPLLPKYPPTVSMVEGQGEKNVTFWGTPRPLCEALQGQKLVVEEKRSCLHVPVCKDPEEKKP
UniProt P27918, residues 28-469: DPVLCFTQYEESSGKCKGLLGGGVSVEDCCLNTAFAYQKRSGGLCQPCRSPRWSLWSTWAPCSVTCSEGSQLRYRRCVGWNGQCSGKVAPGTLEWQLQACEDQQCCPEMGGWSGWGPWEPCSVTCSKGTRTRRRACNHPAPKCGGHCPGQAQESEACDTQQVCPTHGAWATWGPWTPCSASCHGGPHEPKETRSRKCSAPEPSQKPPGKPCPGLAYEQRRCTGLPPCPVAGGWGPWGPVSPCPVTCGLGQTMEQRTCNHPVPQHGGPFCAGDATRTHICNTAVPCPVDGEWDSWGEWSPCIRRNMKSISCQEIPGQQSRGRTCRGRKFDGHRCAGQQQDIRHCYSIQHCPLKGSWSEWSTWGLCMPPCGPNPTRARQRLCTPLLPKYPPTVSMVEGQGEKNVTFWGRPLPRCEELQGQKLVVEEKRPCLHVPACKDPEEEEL

Experiments:
[1] = target: mouse properdin (mouse) (UniProt P11680); experiment: ELISA on mouse properdin
[2] = target: human properdin (human) (UniProt P27918); experiment: ELISA on human properdin

binding [1]: binds
binding [2]: binds
B1: SLN12036 VHH-Fc (Fc fusion, not shown: a dimerising Fc or GST)
chain: HVQLVESGGGSVQAGGSLRLSCAHPEYTSSSYCMAWIRQAPGKEREGVAAIDTDGSTSYTDSVKGRFTISKDNAKNTLYLQMNNLKPEDTAMYYCAAAPWLLAYGDYCVTRPDFGEWGQGTQVTVSS

binding [1]: binds
binding [2]: binds
B2: SLN7160 VHH-Fc (Fc fusion, not shown: a dimerising Fc or GST)
chain: HVQLVESGGGSVQSGGSLRLSCAASAYIYSSYCMGWFRQAPGKERERVSVINSDGRTSYADSVKGRFTISQDNAKNTLYLQMNSLKPEDTAMYYCAAVILPPTDGMEYSCNYPAAEYNYWGQGTQVTVSS
